Protein sequences, listed by entry. Tags and fused reporters are not part of them.
UniProt P61290: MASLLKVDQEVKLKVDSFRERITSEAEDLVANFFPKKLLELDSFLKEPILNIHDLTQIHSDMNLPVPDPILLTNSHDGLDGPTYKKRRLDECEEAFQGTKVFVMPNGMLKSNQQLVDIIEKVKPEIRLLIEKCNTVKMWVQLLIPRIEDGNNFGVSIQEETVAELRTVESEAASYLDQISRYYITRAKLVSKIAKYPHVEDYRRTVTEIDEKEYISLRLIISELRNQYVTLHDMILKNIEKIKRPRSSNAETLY
UniProt O35685: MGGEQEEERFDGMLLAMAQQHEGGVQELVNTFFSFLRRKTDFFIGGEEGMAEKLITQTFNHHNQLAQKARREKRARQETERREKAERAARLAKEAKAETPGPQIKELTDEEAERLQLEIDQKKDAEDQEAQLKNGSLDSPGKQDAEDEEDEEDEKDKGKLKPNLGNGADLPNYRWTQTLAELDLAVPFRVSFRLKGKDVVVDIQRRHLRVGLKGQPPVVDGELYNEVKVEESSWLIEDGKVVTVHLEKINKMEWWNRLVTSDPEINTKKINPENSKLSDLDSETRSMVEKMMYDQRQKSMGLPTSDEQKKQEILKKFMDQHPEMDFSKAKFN

According to paper PMC12179657:

B1: RPRD1A, endogenous (protein, UniProt Q8VDS4 1-312)
chain: MSAFSEAALEKKLSELSNSQQSVQTLSLWLIHHRKHSRPIVTVWERELRKAKPNRKLTFLYLANDVIQNSKRKGPEFTKDFAPVIVEAFKHVSSETDESCKKHLGRVLSIWEERSVYENDVLEQLKHALYGDKKARKRTYEQIKVDENENCSSLGSPSEPPQTLDLVRALQDLENAASGDAAVHQRIASLPVEVQEVSLLEKITDKESGERLSKMVEDACMLLADYNGRLAAEIDDRKQLTRMLADFLRCQKEALAEKEHKLEEYKRKLARVSLVRKELRARIQSLPDLSRLPNVTGSHMHLPFAGDIYSED

Assays:
[1] = biological target: proteasome activator complex subunit 3 (PSME3), endogenous (mouse (endogenous in C2C12)) (UniProt P61290); test: affinity purification with mass spectrometry; label-free quantitative mass spectrometry of the PSME3 coprecipitate from C2C12 cells, cycling and at Days 0 and 1 of differentiation; IgG control
[2] = biological target: proteasome activator complex subunit 3 (PSME3), endogenous (mouse (endogenous in C2C12)) (UniProt P61290); test: as above; remark: listed apart in the source

Row | Molecule | binding [1] | binding [2]
1 | NUDC, endogenous (from UniProt O35685 1-332) | binds | –
2 | B1 | – | binds

Where two headings read alike, the source gives them in different places. No constants are given. Whether binding was seen depends on the method and setting. Binding seen in cells or lysates may run through a third protein. These calls come from enrichment with a bait or labelling near it, and not all partners need be listed.
